Drawing on publication PMC9099420, this text covers binding for one substance.

The chains behind the UniProt entries cited, without tags or fusion partners.
UniProt Q7JJ13: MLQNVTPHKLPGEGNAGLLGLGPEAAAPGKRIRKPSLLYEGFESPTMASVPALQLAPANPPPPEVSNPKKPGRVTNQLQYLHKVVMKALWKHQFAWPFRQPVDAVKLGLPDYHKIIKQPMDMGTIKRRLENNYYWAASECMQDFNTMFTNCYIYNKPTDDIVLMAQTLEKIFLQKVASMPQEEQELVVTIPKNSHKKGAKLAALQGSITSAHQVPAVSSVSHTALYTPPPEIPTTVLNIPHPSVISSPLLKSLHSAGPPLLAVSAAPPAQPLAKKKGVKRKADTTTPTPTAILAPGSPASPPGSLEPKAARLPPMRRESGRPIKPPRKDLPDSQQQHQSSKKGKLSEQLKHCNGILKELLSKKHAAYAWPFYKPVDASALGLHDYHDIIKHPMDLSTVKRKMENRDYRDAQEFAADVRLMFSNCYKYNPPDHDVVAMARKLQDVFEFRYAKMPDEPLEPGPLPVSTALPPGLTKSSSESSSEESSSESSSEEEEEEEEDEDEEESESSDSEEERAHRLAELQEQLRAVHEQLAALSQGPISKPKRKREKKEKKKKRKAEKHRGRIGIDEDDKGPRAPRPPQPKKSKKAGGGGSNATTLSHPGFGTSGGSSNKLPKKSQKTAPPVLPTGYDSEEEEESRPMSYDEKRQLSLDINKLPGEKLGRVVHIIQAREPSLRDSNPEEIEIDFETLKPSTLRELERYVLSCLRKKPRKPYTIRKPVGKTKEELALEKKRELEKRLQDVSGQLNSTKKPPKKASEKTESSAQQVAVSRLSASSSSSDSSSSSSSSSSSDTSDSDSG

This assay concerns the target T1, CTCF (mouse (endogenous in mouse ESCs)) (UniProt Q61164).
T1 sequence: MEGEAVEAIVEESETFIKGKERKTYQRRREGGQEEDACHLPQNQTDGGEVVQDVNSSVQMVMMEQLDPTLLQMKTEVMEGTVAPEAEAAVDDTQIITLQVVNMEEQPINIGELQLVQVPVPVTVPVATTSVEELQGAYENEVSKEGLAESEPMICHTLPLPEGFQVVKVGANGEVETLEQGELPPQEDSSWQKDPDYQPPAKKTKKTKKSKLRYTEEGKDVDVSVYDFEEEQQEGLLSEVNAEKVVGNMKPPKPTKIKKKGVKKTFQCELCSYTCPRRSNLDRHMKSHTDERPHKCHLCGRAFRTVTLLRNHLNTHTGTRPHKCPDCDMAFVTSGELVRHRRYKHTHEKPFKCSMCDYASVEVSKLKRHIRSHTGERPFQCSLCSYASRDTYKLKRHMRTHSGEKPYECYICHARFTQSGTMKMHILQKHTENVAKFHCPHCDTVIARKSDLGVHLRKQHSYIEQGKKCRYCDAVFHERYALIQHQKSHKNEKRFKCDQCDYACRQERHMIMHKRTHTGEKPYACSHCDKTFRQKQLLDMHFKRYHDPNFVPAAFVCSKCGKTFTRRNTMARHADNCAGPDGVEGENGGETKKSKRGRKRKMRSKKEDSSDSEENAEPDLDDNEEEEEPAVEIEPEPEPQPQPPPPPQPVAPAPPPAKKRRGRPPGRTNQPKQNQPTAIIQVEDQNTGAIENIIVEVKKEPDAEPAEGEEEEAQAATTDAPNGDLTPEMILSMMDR
Briefly: co-IP; endogenous proteins from mouse ESC nuclear lysate, untreated (UT) or Benzonase treated (2 h, 4°C); 0.3 M NaCl co-IP buffer (25 mM HEPES, 1 mM MgCl2, 0.2 mM EDTA, 0.5% NP-40); IP with IgG, BRD2 or CTCF antibodies on Protein G magnetic beads, western blot. Background: In western blotting, separated proteins are transferred to a membrane and probed.

These are yes or no findings as the source states them, for the method shown. Binding seen in cells or lysates may run through a third protein. Some results given as binding are weak or reduced against the parent protein; the word gives no strength.

In the case of BRD2 (from UniProt Q7JJ13 1-798), the binding result is “binds”.
